Screening data, single-dose tests

The values are deposited in ChEMBL (CHEMBL3988442, “University of Dundee, Small-Polar-MMV Screening Library” (2021)).

Values are the deposited “Percent Effect”, in %. The controls that fix the scale are not given in the record; negative values are as filed. This is an unselected part of the compounds tested.

Mtb glucose medium: 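Growth of Mycobacterium tuberculosis over 3 days (7H9 medium with glucose and tyloxapol); the read-out is not stated. Tested at 500 µM. Direction is inferred from retests: higher values go with more growth inhibition. Of about 18,000 compounds tested this way, about 1,400 (7.9%) reached 50% or more in at least one test.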
Mtb cholesterol medium: 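Growth of Mycobacterium tuberculosis over 4 days (cholesterol / DPPC medium with tyloxapol); the read-out is not stated. Tested at 500 µM. Higher reads as more growth inhibition (inferred: compounds with an IC50 in retests scored well above the rest). Of about 18,000 compounds tested this way, about 900 (5%) reached 50% or more in at least one test.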

SMILES	Mtb glucose medium	Mtb cholesterol medium
CNC(=O)c1cccc(S(=O)(=O)NC2CCCCC2)c1	43.88	28.59
CCCC(=O)N1CCC(C(=O)N2CCOCC2)CC1	4.373	4.29
CC(=O)NC(C(N)=O)c1nnc(-c2ccccc2)o1 (centres undefined)	8.595	-3.483
COC(=O)c1cc(F)ccc1Cn1ccccc1=O	8.951	-3.85
O=C(CSc1ncccn1)Nc1ccc2c(c1)OCO2	9.892	-16.45
Cc1c(C#N)c(SCCS(C)(=O)=O)nc2c1CCC2	3.019	-1.886
O=C1OCCN1CCn1nnc(-c2ccc(F)cc2)n1	39.9	27.84
CCS(=O)(=O)C(C)C(=O)NC(C)(C)C (centres undefined)	-0.4096	-0.4604
Cc1ocnc1CNC(=O)c1ccc(Br)cn1	0.1341	-11.62
OCC1CN(c2ncc(Cl)cc2F)CCO1 (centres undefined)	62.39	68.72
CN1CCC(=O)CC1c1ccc(Br)cc1 (centres undefined)	-4.629	-2.037
CN(CC(=O)Nc1cccc(S(N)(=O)=O)c1)C1CC1	18.18	16.67
CCC(COC)NC(=O)Nc1nnc2ccccn12 (centres undefined)	-14.6	-22
CCN(Cc1ccoc1)C(=O)[C@@H](N)C(C)C	16.34	-5.092
OCCNCc1cc(Br)ccc1F	6.876	8.153
CCC(C)NC(=O)N1CCCC1 (centres undefined)	28.6	0.4864
CC(C)c1cc(CN(C)C(=O)CCNS(C)(=O)=O)no1	7.886	-12.95
COC(=O)NCCC(=O)N(C)C(C)CC(C)C (centres undefined)	44.61	44.08
CS(=O)(=O)NC1CCCN(Cc2nnnn2C2CC2)C1 (centres undefined)	16.1	7.121
CNC(=O)CCc1ccc(S(=O)(=O)NCC(C)C)cc1	37.77	26.27
COc1c(CNCc2nncn2C)c(C)nn1C	-11.43	-14.02
Cc1nnc(CN(C)C(=O)CN(C)C2CCCC2)o1	2.788	-0.2334
Cn1ncc(N2CCCC(c3nnc[nH]3)C2)c(Cl)c1=O (centres undefined)	4.062	10.42
COC(=O)N1CCN(c2ccccn2)CC1	49.39	52.17
CCC(C(=O)NCc1cn2ccsc2n1)n1cccn1 (centres undefined)	27.13	-4.136
COc1cc(CN(C)C)ccc1O	-2.042	-10.4
Cc1cnc(C(=O)N2CCC(O)(CN(C)C)C2)cn1 (centres undefined)	0.0122	11.04
CCO[C@H]1CN(CCCc2ccco2)C[C@@H]1O	8.904	1.799
CN1CCC(NC(=O)c2cc3ccccc3s2)C1=O (centres undefined)	-9.057	-10.41
NC(=O)c1ccc2c(c1)CCCN2Cc1ccon1	22.59	8.074
O=C1CCCc2ncc(C(F)(F)F)cc21	-11.19	-7.651
COc1ccc(OC)c(NC(=O)N(C)CCN(C)C)c1	27.38	21.08
CCOC(=O)c1ccc(N2CCC(CCO)CC2)nc1	82.47	88
Cc1nc(CCNS(=O)(=O)c2cccnc2)no1	0.4147	-14.37
CCN(CC(N)=O)Cc1ccc(Cl)s1	8.499	9.93
CNCCN1CCOC1=O	8.199	5.656
CN(C)c1ccnc(C(=O)NCC(=O)c2ccco2)c1	20.67	27.65
O=c1ccc(Br)cn1CCO	1.019	4.17
O=C(NCCNC(=O)C1CCCC1)c1ccccc1O	55.44	46.77
COc1ccc(CCN)c(OC)c1	85.07	93.73
Cn1cc(Br)cc(NC(=O)c2sccc2C#N)c1=O	-21.5	-18.32
CNC(=O)CCNC(=O)NCCc1ccccc1	9.706	-2.577
Cn1cc(C(=O)NCc2ccccc2F)cn1	36.12	24.9
CC(C)c1cccc(S(=O)(=O)NCCCN)c1	58.99	26.11
Cc1nc(C)c(C(=O)NCc2ncoc2C)s1	7.559	-8.12
Cc1cc(NC(=O)N2CC[S+]([O-])C(C)(C)C2)nnc1C (centres undefined)	3.516	-8.931
CCN1CCC(NC(=O)c2ccc(OC)c(F)c2)CC1	13.35	-0.1243
O=C(Nc1ccc2[nH]ncc2c1)C1CCC1	8.987	7.629
CN(C)C(=O)c1ccc2c(c1)CCCN2	15.31	8.116
NC(=O)NC1CCNC1 (centres undefined)	1.556	3.021
COc1ccccc1C(=O)CN	8.52	0.4123
NCc1ccnc(OCC(F)F)c1	29.4	15.76
CCOc1ncccc1CNC(=O)c1[nH]ncc1Br	52.13	41.12
CC1CN(CCC(=O)Nc2cccnc2)CCCO1 (centres undefined)	2.145	-4.607
CCOc1ccc2nnnn2n1	7.684	18.31